We go through 18 compounds from PubChem BioAssay AID330 (DTP/NCI, 2004).

The list does not hold the whole screen: it is rich in T/C values a quarter to a half above the control, in often repeated tests (any T/C) and in doses without a T/C. Other doses and runs of a compound stand elsewhere. T/C is the treated group as % of the vehicle group. Some entries give survivors of the animals treated and no T/C: the source holds a T/C of zero for them, seemingly a mark for toxic or unscored doses. Some survivor counts are full or nearly so, which does not show that the dose was tolerated: survival well below the control is almost never listed, so the zero probably covers shortened survival too. Counts of survivors are from the toxicity check (mostly the fifth day) where no day follows; animals may have died later. Schedule codes are those of the source, taken here to give the interval after Q, in days (D) or hours (H), and the number of doses after X. Some doses were run more than once; the results are listed from low to high. For survival time, this PubChem deposit counts one and a half times the control or more as active, and values a quarter to a half above the control carry no call in these data; other NCI protocols may use other cut-offs. Some T/C values are followed by the survivors on the day toxicity was checked, most often the fifth; where none is given, no animal had died by that day.

The test relates to P388 leukemia ip, CD2F1 mice, survival T/C. Nature of the test: NCI In Vivo Anticancer Drug Screen. Data for tumor model P388 Leukemia (intraperitoneal) in CD2F1 (CDF1) mice. The conditions noted are these: T/C endpoint: median survival time, higher T/C = longer survival.
The mark [1] stands for this setting: dose: 50.0 mg/kg/injection, schedule: Q01DX005 (ip), vehicle: saline with Tween-80.
The mark [2] stands for this setting: dose: 200.0 mg/kg/injection, schedule: Q01DX005 (ip), vehicle: saline with Tween-80.
Where [3] appears, read: dose: 25.0 mg/kg/injection, schedule: Q01DX005 (ip), vehicle: Klucel (hydroxypropylcellulose) (HPC).
[4] abbreviates: dose: 200.0 mg/kg/injection, schedule: Q01DX009 (ip), vehicle: Klucel (hydroxypropylcellulose) (HPC).
[5] abbreviates: dose: 400.0 mg/kg/injection, schedule: Q01DX009 (ip), vehicle: saline with Tween-80.

Turning to `CC[C@]1(O)Cc2c(O)c3c(c(O)c2[C@@H](OC2CC(N)C(O)C(C)O2)C1)C(=O)c1c(OC)cccc1C3=O` (stereo not given in full), the T/C by setting is: (dose: 0.39 mg/kg/injection, schedule: Q01DX009 (ip), vehicle: water) 130 and 149 % of control; (dose: 0.78 mg/kg/injection, schedule: Q01DX009 (ip), vehicle: water) 133 and 135 % of control; (dose: 4.7 mg/kg/injection, schedule: Q04DX003 (ip), vehicle: water) 131 % of control; (dose: 9.4 mg/kg/injection, schedule: Q04DX003 (ip), vehicle: water) 132 % of control; (dose: 18.8 mg/kg/injection, schedule: Q04DX003 (ip), vehicle: water) 140 % of control. For the same compound, the survivor count reads like this: (dose: 6.25 mg/kg/injection, schedule: Q01DX009 (ip), vehicle: water) 6 of 6; (dose: 12.5 mg/kg/injection, schedule: Q01DX009 (ip), vehicle: water) 4 of 6; (dose: 25.0 mg/kg/injection, schedule: Q01DX009 (ip), vehicle: water) 0 of 6.

In the case of `O=C1c2cccc(NCCCNCCO)c2C(=O)c2cccc(NCCCNCCO)c21`, the T/C reads like this: (dose: 3.12 mg/kg/injection, schedule: Q01DX005 (ip), vehicle: saline with Tween-80) 133 % of control; (dose: 6.25 mg/kg/injection, schedule: Q01DX005 (ip), vehicle: acid diluted with saline) 128 % of control [5 of 6 alive]; (dose: 6.25 mg/kg/injection, schedule: Q01DX005 (ip), vehicle: saline with Tween-80) 140 % of control; (dose: 12.5 mg/kg/injection, schedule: Q01DX005 (ip), vehicle: acid diluted with saline) 133 % of control; (dose: 12.5 mg/kg/injection, schedule: Q01DX005 (ip), vehicle: saline with Tween-80) 133 % of control; (dose: 25.0 mg/kg/injection, schedule: Q01DX005 (ip), vehicle: acid diluted with saline) 125 % of control. The T/C runs as follows: (dose: 25.0 mg/kg/injection, schedule: Q01DX005 (ip), vehicle: saline with Tween-80) 125 % of control; under setting [1], 133 % of control. Moreover, the survivor count (dose: 50.0 mg/kg/injection, schedule: Q01DX005 (ip), vehicle: acid diluted with saline) was 3 of 6; the survivor count (dose: 100.0 mg/kg/injection, schedule: Q01DX005 (ip), vehicle: acid diluted with saline) was 0 of 6; the survivor count (dose: 100.0 mg/kg/injection, schedule: Q04DX002 (ip), vehicle: distilled water + Tween-80) was 2 of 5; the survivor count (dose: 200.0 mg/kg/injection, schedule: Q04DX002 (ip), vehicle: distilled water + Tween-80) is reported as 0 of 5; the survivor count (dose: 400.0 mg/kg/injection, schedule: Q04DX002 (ip), vehicle: distilled water + Tween-80) is listed as 0 of 5.

As for `COc1ccc(/C=N/NC(=S)NC23CC4CC(CC(C4)C2)C3)cc1OC`, the survivor count (dose: 60.0 mg/kg/injection, schedule: Q01DX005 (ip), vehicle: saline with Tween-80) is 6 of 6; the survivor count (dose: 120.0 mg/kg/injection, schedule: Q01DX005 (ip), vehicle: saline with Tween-80) was 6 of 6; the survivor count (dose: 240.0 mg/kg/injection, schedule: Q01DX005 (ip), vehicle: saline with Tween-80) was 6 of 6.

As to `COc1ccc2[nH]cc(C3CCCN4CCCCC34)c2c1` (stereo not given), the survivor count under setting [2] is on record as 3 of 6.

For `COc1cc2c(cc1OC)C13CCN4C=C5CCOC6CC(=O)N2C1C6C5CC43` (stereo not given), the survivor count is, setting by setting: (dose: 120.0 mg/kg/injection, schedule: Q01DX005 (ip), vehicle: saline) 0 of 6; (dose: 240.0 mg/kg/injection, schedule: Q01DX005 (ip), vehicle: saline) 0 of 6.

For the compound `OCNC(=S)c1ccccc1`, under setting [2], the survivor count is on record as 0 of 5.

Take `CNC(=O)OCc1ccc(NCCN(C)C)c2c(=O)c3cc(OC(=O)NC)ccc3oc12`: the T/C (dose: 12.5 mg/kg/injection, schedule: Q01DX005 (ip), vehicle: Klucel (hydroxypropylcellulose) (HPC)) is 127 % of control and the T/C under setting [3] was 132 % of control. Moreover, the survivor count is 2 of 6 under setting [3]; 0 of 6 (dose: 50.0 mg/kg/injection, schedule: Q01DX005 (ip), vehicle: Klucel (hydroxypropylcellulose) (HPC)); 0 of 6 (dose: 100.0 mg/kg/injection, schedule: Q01DX005 (ip), vehicle: Klucel (hydroxypropylcellulose) (HPC)); 0 of 6 (dose: 200.0 mg/kg/injection, schedule: Q01DX005 (ip), vehicle: Klucel (hydroxypropylcellulose) (HPC)).

As for `C=C(C)C1CCC=CC(=O)C1` (stereo not given), the survivor count (dose: 400.0 mg/kg/injection, schedule: Q04DX003 (ip), vehicle: Klucel (hydroxypropylcellulose) (HPC)) is 0 of 6.

For the compound `O=C1CC2(CCCC2)CC(=O)N1c1ccc(-c2ccc(N3C(=O)CC4(CCCC4)CC3=O)cc2)cc1`, the survivor count under setting [4] is recorded as 6 of 6.

In the case of `O=C(Nc1cccc(C(F)(F)F)c1)c1cc(Br)cc(Br)c1O`, for the setting “dose: 50.0 mg/kg/injection, schedule: Q01DX009 (ip), vehicle: Klucel (hydroxypropylcellulose) (HPC)”, the survivor count is reported as 2 of 6.

For `CC1=CC(=O)[C@@H](O)[C@]2(C)[C@H]3[C@@H](O)[C@H](O)[C@@]4(C)OC[C@@]35[C@@H](C[C@@H]12)OC(=O)C[C@]54O`, the T/C is 126 % of control (dose: 1.0 mg/kg/injection, schedule: Q01DX009 (ip), vehicle: saline); 139 and 141 % of control (dose: 2.0 mg/kg/injection, schedule: Q01DX009 (ip), vehicle: saline); 137 and 140 % of control (dose: 4.0 mg/kg/injection, schedule: Q01DX009 (ip), vehicle: saline). Besides, the survivor count (dose: 16.0 mg/kg/injection, schedule: Q01DX009 (ip), vehicle: saline) is reported as 2 of 6.

For the compound `Nc1c(S(=O)(=O)O)cc(Nc2cccc(CO)c2)c2c1C(=O)c1ccccc1C2=O`, the survivor count is, setting by setting: (dose: 50.0 mg/kg/injection, schedule: Q01DX001 (ip), vehicle: saline) 6 of 6; (dose: 200.0 mg/kg/injection, schedule: Q01DX001 (ip), vehicle: saline) 5 of 6.

Take `CC1=CC(=Nc2ccc(N(C)C)cc2)C=CC1=O`: the survivor count runs as follows: (dose: 25.0 mg/kg/injection, schedule: Q01DX009 (ip), vehicle: saline with Tween-80) 4 of 6 and 5 of 6; (dose: 50.0 mg/kg/injection, schedule: Q01DX009 (ip), vehicle: saline with Tween-80) 2 of 6; (dose: 100.0 mg/kg/injection, schedule: Q01DX009 (ip), vehicle: saline with Tween-80) 0 of 6; (dose: 200.0 mg/kg/injection, schedule: Q01DX009 (ip), vehicle: saline with Tween-80) 0 of 6; under setting [5], 0 of 6.

Consider `Nc1ccn(C2CC(O)C(CO)O2)c(=O)n1` (stereo not given), for which the survivor count (dose: 2.3 mg/kg/injection, schedule: Q01DX009 (ip), vehicle: water) is reported as 6 of 6. Besides, the T/C (dose: 9.38 mg/kg/injection, schedule: Q01DX009 (ip), vehicle: water) was 131 % of control.

In the case of `NC(=O)c1ccc(NC(=O)/C=C/C(=O)Nc2ccc(C(N)=O)cn2)nc1`, the T/C reads like this: (dose: 2.5 mg/kg/injection, schedule: Q01DX009 (ip), vehicle: saline with Tween-80) 136 % of control; (dose: 5.0 mg/kg/injection, schedule: Q01DX009 (ip), vehicle: saline with Tween-80) 127 % of control; (dose: 2500.0 micrograms/kg/injection, schedule: Q01DX009 (ip), vehicle: saline with Tween-80) 127 % of control. For the same compound, the survivor count runs as follows: (dose: 10.0 mg/kg/injection, schedule: Q01DX009 (ip), vehicle: saline with Tween-80) 6 of 6; (dose: 40.0 mg/kg/injection, schedule: Q04DX003 (ip), vehicle: saline with Tween-80) 6 of 6.

As for `CN(C)/C=C(/N=C(C#N)C#N)C1OCCO1`, the survivor count is, setting by setting: under setting [1], 4 of 6; (dose: 100.0 mg/kg/injection, schedule: Q01DX005 (ip), vehicle: saline with Tween-80) 2 of 6; under setting [2], 0 of 6.

`CCOC(=O)COc1ccc(/C=C(\C)[N+](=O)[O-])c2ccccc12`: the survivor count under setting [5] was 3 of 6.

As for `CC(=O)c1cc(C(=O)O)c(O)c2ccccc12`, under setting [4], the survivor count was 2 of 6.
